In patent publication US20030125287A1, “Antisense oligonucleotides and methods to induce tumor cell death” (Hybridon, Inc., priority 2001, published 2003):
Some of these results come from one statement about several compounds together. Oligonucleotides are written 5' to 3', each unit as a sugar letter and its base; * is a phosphorothioate linkage, no mark a phosphodiester; rarer units and linkages stand in square brackets, end groups in braces. Plain capitals give the bases only. d = 2'-deoxy (DNA)

System: apoptosis-inducing factor (AIF)
Experiment: AIF immunostaining and DAPI double-labeling of MSN cells
Type: cell-based, human
Settings: 600 nM
Method: To examine whether down-regulation of survivin induces AIF nuclear translocation, AIF and DAPI double-labeling was performed on MSN cells treated with lipofectin (FIG. 9H), or 600 nM survivin antisense oligonucleotide 904 (FIG. 9I), mismatch oligonucleotide 1132 (FIG. 9J), or survivin antisense oligonucleotide 906 (FIG. 9K).
Lipofectin, mismatch oligonucleotide 1132 or survivin antisense oligonucleotide-treated MSN cells were fixed and permeabilized as described for PI staining, and blocked for 1 h at room temperature with 10% normal goat serum in 5% non-fat, dry milk in 1×TBS. […] Omission of the primary antibody confirmed that the immunostaining was specific. Cells were counterstained with the DNA-specific dye DAPI (1:1000 of a 1 mg/ml stock; 15 min at room temperature). Cells were examined with an Olympus 1×70 inverted microscope. Fluorescent images were collected using a 12-bit Photometrics cooled CCD camera. For each treatment, 15 random, 40×objective fields consisting of about 600 cells were examined. TRITC (red) and DAPI (blue) stained cells were scored as having AIF staining either in the mitochondria or the nucleus relative to the total number examined. In parallel, the DAPI stained nuclei were also scored as normal, condensed, or abnormal nuclei. Experiments were performed in duplicate.

Row | Substance | percentage of cells with nuclear localization / translocation of AIF
1 | d(GCTTCCCAGTCACATCCTGT) (antisense dG*dC*dT*dT*dC*dC*dC*dA*dG*dT*dC*dA*dC*dA*dT*dC*dC*dT*dG*dT) [Oligo 906, 20-mer phosphorothioate survivin antisense oligonucleotide, complementary to survivin mRNA 11897-11916] | 45-51%
2 | d(TCTTGGCTCTTTCTCTGTCC) (antisense dT*dC*dT*dT*dG*dG*dC*dT*dC*dT*dT*dT*dC*dT*dC*dT*dG*dT*dC*dC) [Oligo 904, 20-mer phosphorothioate survivin antisense oligonucleotide, complementary to survivin mRNA 5248-5267] | 45-51%
